The text below walks through data of the supplement of paper PMC7666118.

Chains of the proteins cited; added tags and fusions are not shown. Lines headed by an entry give the natural chain unless they say otherwise; changes in a name come on top.
UniProt Q9P2X0: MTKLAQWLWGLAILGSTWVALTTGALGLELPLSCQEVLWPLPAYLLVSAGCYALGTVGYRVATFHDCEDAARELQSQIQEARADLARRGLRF
UniProt P29692: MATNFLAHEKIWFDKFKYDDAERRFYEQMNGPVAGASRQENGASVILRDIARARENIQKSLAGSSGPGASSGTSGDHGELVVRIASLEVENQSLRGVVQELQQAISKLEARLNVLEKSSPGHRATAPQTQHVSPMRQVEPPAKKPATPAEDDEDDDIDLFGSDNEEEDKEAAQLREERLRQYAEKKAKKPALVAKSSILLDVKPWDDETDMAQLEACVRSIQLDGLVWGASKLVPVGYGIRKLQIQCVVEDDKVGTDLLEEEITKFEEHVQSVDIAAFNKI
UniProt Q13409, whole entry: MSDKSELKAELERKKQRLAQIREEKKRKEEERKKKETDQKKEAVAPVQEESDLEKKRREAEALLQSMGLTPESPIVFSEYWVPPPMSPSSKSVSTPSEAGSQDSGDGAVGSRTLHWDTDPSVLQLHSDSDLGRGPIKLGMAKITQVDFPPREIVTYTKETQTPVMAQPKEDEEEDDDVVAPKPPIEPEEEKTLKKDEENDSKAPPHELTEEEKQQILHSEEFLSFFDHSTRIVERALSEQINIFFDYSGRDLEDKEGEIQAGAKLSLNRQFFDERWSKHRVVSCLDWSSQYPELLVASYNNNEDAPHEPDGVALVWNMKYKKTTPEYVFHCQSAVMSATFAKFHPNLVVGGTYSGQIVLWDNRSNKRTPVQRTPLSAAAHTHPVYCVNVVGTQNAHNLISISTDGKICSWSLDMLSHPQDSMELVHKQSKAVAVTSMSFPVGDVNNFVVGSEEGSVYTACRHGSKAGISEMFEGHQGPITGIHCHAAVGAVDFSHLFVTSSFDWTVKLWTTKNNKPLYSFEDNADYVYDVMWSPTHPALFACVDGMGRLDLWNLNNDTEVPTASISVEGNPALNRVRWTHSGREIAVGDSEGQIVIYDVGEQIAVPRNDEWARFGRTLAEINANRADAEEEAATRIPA
UniProt Q92608: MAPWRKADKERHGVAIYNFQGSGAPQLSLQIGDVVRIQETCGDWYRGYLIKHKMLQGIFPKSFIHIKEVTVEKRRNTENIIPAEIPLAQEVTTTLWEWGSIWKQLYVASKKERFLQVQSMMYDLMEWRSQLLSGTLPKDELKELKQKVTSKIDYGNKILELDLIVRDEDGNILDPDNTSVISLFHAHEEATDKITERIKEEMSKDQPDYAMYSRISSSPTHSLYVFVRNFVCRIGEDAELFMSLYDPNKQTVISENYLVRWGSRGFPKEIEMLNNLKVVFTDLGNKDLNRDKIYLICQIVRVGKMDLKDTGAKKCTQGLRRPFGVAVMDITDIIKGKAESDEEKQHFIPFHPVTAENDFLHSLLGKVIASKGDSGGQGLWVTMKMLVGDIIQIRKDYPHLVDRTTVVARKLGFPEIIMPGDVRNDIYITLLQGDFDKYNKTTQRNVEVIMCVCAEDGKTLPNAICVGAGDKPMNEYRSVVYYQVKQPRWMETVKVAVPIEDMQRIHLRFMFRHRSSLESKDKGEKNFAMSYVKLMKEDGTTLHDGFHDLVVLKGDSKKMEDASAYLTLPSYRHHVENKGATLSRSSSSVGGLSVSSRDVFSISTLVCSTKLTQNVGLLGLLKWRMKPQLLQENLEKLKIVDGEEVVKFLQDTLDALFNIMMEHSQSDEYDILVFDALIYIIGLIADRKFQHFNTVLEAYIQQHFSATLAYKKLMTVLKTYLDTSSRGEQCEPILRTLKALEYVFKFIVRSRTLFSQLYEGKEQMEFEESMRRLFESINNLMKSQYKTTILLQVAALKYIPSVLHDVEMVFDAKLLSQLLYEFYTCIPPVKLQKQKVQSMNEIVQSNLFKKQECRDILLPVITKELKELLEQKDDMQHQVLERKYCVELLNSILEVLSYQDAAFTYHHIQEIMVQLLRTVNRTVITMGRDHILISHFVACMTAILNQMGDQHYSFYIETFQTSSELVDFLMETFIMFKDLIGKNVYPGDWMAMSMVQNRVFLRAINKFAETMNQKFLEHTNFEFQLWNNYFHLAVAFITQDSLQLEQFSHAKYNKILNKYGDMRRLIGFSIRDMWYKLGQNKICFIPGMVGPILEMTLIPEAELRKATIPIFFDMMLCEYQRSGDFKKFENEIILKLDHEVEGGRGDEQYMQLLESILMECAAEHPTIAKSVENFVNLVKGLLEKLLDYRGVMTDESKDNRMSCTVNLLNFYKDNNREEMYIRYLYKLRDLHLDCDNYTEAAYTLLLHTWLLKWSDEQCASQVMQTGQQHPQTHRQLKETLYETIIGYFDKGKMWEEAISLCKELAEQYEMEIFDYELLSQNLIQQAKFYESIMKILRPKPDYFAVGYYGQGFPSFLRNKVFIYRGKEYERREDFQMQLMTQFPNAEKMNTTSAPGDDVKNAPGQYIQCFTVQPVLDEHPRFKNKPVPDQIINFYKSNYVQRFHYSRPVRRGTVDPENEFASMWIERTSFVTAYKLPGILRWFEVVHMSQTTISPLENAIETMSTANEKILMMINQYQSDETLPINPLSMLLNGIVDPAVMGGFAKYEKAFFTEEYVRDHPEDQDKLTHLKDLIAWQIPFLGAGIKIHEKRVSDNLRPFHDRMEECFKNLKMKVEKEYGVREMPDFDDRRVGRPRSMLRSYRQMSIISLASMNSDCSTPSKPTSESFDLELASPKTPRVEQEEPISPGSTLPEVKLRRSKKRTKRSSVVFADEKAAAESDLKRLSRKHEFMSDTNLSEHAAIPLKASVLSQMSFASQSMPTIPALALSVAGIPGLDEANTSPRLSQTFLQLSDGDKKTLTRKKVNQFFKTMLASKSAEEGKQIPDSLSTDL
UniProt Q15029: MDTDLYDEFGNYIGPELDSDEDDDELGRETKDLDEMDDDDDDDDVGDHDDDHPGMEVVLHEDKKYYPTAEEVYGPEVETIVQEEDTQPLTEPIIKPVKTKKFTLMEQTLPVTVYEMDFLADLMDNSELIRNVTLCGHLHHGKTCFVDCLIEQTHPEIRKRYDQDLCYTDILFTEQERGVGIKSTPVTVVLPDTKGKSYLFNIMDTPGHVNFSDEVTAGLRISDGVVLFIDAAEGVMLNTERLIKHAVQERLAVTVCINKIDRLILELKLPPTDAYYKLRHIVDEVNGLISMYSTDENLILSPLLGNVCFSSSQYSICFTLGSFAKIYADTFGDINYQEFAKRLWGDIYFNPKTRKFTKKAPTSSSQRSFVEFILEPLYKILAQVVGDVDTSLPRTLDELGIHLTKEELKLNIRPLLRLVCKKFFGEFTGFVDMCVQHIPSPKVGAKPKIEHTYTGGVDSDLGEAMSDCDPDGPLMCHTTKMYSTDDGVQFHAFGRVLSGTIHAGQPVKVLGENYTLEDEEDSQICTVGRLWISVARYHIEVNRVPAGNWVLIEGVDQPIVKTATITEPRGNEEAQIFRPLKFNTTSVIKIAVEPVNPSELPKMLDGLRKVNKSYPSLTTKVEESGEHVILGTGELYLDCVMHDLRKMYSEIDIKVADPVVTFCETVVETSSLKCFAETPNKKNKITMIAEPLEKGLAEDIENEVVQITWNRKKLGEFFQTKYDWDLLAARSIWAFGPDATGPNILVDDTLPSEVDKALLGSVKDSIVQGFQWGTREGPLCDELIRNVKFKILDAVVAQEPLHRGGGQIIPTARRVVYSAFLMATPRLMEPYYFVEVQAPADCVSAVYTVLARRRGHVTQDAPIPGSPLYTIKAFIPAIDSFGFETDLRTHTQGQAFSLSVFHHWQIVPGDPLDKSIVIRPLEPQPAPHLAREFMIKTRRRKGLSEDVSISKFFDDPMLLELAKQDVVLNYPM
UniProt O00418: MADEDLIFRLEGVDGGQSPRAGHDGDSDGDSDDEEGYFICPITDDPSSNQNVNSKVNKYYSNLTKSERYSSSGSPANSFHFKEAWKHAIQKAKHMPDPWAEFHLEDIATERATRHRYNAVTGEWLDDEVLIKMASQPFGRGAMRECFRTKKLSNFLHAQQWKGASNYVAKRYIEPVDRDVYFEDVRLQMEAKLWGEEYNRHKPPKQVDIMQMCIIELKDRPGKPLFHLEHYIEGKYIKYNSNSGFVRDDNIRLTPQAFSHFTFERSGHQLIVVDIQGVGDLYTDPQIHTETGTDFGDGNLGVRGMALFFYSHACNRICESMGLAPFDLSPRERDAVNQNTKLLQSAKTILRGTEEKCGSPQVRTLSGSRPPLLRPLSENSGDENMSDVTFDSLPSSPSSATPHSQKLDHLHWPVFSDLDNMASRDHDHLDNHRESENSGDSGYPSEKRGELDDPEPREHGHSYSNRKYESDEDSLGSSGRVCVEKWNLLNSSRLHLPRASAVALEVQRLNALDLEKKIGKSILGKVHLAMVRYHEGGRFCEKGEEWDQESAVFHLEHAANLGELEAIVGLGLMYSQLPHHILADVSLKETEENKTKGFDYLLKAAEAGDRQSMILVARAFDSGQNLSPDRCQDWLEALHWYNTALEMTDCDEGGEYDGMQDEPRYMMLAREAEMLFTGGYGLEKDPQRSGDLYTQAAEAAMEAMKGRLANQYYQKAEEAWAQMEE
UniProt Q9H777: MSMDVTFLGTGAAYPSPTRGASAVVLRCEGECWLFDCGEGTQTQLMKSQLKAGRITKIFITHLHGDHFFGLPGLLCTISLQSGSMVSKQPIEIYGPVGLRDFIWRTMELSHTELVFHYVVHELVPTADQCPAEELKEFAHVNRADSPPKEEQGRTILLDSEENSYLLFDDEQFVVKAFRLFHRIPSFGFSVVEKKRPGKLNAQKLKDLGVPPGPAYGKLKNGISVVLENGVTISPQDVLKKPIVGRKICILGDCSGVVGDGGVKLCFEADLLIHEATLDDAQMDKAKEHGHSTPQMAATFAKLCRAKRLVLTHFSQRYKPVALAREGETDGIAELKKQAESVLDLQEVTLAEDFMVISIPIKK
UniProt P41567, whole entry: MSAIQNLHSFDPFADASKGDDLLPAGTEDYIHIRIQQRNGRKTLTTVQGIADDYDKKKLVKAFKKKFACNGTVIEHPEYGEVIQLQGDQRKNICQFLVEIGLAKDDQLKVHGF
UniProt Q9NSV4, whole entry: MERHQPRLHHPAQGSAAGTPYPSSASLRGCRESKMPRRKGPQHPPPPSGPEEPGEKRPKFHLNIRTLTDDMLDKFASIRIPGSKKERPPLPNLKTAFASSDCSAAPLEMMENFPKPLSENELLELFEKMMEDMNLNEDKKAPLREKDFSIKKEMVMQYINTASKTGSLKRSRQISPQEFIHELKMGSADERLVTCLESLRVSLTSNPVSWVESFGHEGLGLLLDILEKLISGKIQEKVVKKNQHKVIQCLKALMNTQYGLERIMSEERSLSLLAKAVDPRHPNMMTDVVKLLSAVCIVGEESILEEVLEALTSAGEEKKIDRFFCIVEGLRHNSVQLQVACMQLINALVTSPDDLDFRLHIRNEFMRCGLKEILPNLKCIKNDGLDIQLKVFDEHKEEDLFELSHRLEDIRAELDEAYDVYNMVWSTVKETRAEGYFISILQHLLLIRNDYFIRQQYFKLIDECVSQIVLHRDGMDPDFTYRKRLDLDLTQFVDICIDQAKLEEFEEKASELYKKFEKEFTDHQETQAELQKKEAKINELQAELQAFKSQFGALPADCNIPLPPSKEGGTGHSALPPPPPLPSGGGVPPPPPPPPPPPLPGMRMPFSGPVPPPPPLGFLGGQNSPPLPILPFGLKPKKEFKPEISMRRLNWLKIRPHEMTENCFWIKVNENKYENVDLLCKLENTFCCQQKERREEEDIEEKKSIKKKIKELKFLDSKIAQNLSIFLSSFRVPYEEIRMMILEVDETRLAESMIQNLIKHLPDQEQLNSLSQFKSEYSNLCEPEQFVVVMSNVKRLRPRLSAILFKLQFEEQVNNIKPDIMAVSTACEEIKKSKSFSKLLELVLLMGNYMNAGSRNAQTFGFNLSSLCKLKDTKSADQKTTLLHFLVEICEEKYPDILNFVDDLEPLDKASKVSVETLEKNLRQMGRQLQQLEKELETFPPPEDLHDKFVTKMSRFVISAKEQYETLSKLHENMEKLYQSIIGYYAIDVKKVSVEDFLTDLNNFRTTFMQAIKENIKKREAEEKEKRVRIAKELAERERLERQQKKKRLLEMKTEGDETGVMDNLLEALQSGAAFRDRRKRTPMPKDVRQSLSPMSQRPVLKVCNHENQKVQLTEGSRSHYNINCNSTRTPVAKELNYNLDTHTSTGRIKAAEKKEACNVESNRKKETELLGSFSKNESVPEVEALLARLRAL
UniProt Q9UNI6, whole entry: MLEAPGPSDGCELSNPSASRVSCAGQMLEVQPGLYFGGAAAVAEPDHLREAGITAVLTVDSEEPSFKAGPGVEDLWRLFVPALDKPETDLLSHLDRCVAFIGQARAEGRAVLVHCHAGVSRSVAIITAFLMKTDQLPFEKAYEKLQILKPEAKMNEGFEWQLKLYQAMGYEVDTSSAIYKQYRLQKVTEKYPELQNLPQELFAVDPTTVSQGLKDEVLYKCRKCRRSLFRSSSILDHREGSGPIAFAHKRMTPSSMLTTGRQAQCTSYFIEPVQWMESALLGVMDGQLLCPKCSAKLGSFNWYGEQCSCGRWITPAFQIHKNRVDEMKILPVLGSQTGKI

The list shows a part of the results.

Compound in the experiment: COc1ccc(Cn2ccc3ccc(C(=O)NO)cc32)cc1
The experiment in a line: dose-dependent thermal stabilisation call (2D-TPP, DLPTP, 10% FDR) (binary (1 = stabilised)); higher = stabilised by the compound. The note with it: system: HL-60 intact cells; concentration range 0.04-10 µM.
As for DPM3 (UniProt Q9P2X0), the “dose-dependent thermal stabilisation call” value was inactive: 0.

As for DPH1 (UniProt Q9BZG8), the “dose-dependent thermal stabilisation call” value is inactive: 0. Consider ECH1 (UniProt Q13011), for which the “dose-dependent thermal stabilisation call” value is inactive: 0. With EIF4E (UniProt P06730), the “dose-dependent thermal stabilisation call” value is inactive: 0. Take EEF1D (UniProt P29692): the “dose-dependent thermal stabilisation call” value was inactive: 0. Consider EIF3I (UniProt Q13347), for which the “dose-dependent thermal stabilisation call” value is inactive: 0. As for EML2 (UniProt O95834), the “dose-dependent thermal stabilisation call” value was inactive: 0. Consider DKFZP686O24166, for which the “dose-dependent thermal stabilisation call” value is inactive: 0. Take DYNC1I2 (UniProt Q13409): the “dose-dependent thermal stabilisation call” value is inactive: 0. Regarding DNAL1 (UniProt Q4LDG9), the “dose-dependent thermal stabilisation call” value is inactive: 0. Turning to EIF4E2 (UniProt O60573), the “dose-dependent thermal stabilisation call” value was inactive: 0. The same measure for DNAJB12 (UniProt Q9NXW2): inactive: 0; for DOCK2 (UniProt Q92608): inactive: 0. As for DRG2 (UniProt P55039), the “dose-dependent thermal stabilisation call” value is inactive: 0. The value for EIF4G3 (UniProt O43432) was inactive: 0; that for EDC3 (UniProt Q96F86) was inactive: 0; that for EIF1AP1 was inactive: 0.

In the case of ELP2 (UniProt Q6IA86), the “dose-dependent thermal stabilisation call” value is inactive: 0. As to EFTUD2 (UniProt Q15029), the “dose-dependent thermal stabilisation call” value is inactive: 0. DTYMK (UniProt P23919): the “dose-dependent thermal stabilisation call” value was inactive: 0. EMG1 (UniProt Q92979): the “dose-dependent thermal stabilisation call” value is active: 1. The same measure for EEF2K (UniProt O00418): inactive: 0; for DUS3L (UniProt Q96G46): inactive: 0. On to ERLIN2 (UniProt O94905), for which the “dose-dependent thermal stabilisation call” value was inactive: 0. As to EML4 (UniProt Q9HC35), the “dose-dependent thermal stabilisation call” value was inactive: 0. The same measure for ELAC1 (UniProt Q9H777): inactive: 0; for EIF1 (UniProt P41567): inactive: 0; for EIF3H (UniProt O15372): inactive: 0. Turning to EGLN1 (UniProt Q9GZT9), the “dose-dependent thermal stabilisation call” value is inactive: 0. As for EIF2C3 (UniProt Q9H9G7), the “dose-dependent thermal stabilisation call” value is inactive: 0. For the target EDC4 (UniProt Q6P2E9), the “dose-dependent thermal stabilisation call” value was inactive: 0. The value for DOCK7 (UniProt Q96N67) was inactive: 0.

Take DIAPH3 (UniProt Q9NSV4): the “dose-dependent thermal stabilisation call” value was inactive: 0.

Turning to DUSP12 (UniProt Q9UNI6), the “dose-dependent thermal stabilisation call” value is inactive: 0.

Turning to EDEM1 (UniProt Q92611), the “dose-dependent thermal stabilisation call” value was inactive: 0.

For the target EIF4H (UniProt Q15056), the “dose-dependent thermal stabilisation call” value was inactive: 0. DNAJC25 (UniProt Q9H1X3): the “dose-dependent thermal stabilisation call” value was inactive: 0. Turning to ERGIC1 (UniProt Q969X5), the “dose-dependent thermal stabilisation call” value was inactive: 0.
